As a reminder, the AC50 is the concentration at which the activity in the assay is half-maximal. Read a high AC50 as activity only at high concentration.

Drawing on PubChem BioAssay AID2685 (National Center for Advancing Translational Sciences (NCATS), 2010), this text covers cell number change and AC50 for 57 compounds.

This assay is described as follows: qHTS Assay for Lipid Storage Modulators in Drosophila S3 Cells.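 For cell number change: cells counted by Cell Tracker Red CMTPX staining in the red channel.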 The settings on record: BODIPY lipid droplet fluorescence, 18-24 h; for cell number change: measured here: cell count max response, cells fed with added oleic acid. In a few lines:
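Drosophila S3 cells loaded with oleic acid (400 uM, as added) and compounds at several concentrations; lipid droplets imaged by 488-nm laser-scanning cytometry, 500–530 nm intensity and object ratio to cell channel. Percent activity normalized to 20 uM Triacsin C.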

Setting [1] is: measured here: lipid fluorescence (Fed channel) AC50, cells fed with added oleic acid.
The mark [2] stands for this setting: measured here: cell number channel AC50, cells fed with added oleic acid.

The structures appear in SMILES notation. The list shows a part of the results. Shown are side measurements of this screen, not its main read-out; they come without a call. Compounds called inactive in the main read-out are mostly missing here. Words in brackets tell the shape of the fitted curve; partial curves, single points and poor fits give uncertain potencies.

For the compound `O=C(NC1CCCCC1)c1ccc2[nH]c(=O)c(=O)[nH]c2c1`, the cell number change was determined as 23.5%. The AC50 under setting [1] was 20.6 µM [rising, single point].
Turning to `CC12CCC(C(=O)Nc3ccc(Cl)cc3)([C@H](Br)C1=O)C2(C)C` (some centres not stated), the cell number change stood at 17.9%. In addition, the half-maximal activity concentration (AC50) under setting [2] was 5.8 µM [rising, single point].
As to `CC(C)(C)CC(=O)Nc1nnc(SCC(=O)N2CCCCC2)s1`, the cell number change is 15.8%. Moreover, the AC50 under setting [2] is 2.06 µM [rising, partial curve, poor fit].
As for `N#CCOC(=O)c1cc(S(=O)(=O)N2CCCCC2)ccc1N1CCOCC1`, the cell number change was -10.2%. Further, the AC50 under setting [1] was 0.651 µM [rising, partial curve].
In the case of `C=CCn1c(-c2cccc(OC)c2)n[nH]c1=S`, the cell number change was 41.9%. The AC50 under setting [2] was 4.61 µM [rising, partial curve]. Also, the half-maximal activity concentration (AC50) under setting [1] was 1.84 µM [rising, partial curve].
Take `O=C1c2ccccc2-c2onc3ccc(N4CCCC4)c1c23`: the cell number change is -38.2%. Further, under setting [2], the AC50 was 4.61 µM [falling, partial curve].
Turning to `O=c1[nH]c(/C=C/c2ccc(Br)cc2)nc2ccccc12`, the cell number change was determined as 17.1%.
For the compound `CC1CCCCC1NC(=O)CSc1nncn1N` (configuration not stated), the cell number change was -27.2%. In addition, the AC50 under setting [1] is 18.4 µM [falling, single point].
For the compound `COc1ccc(Cl)cc1NC(=O)c1cc(S(=O)(=O)N2CCCC2)cn1C`, the cell number change was 5.19%.
For `Cc1ccccc1SCC(=O)NNC(=O)c1ccccc1O`, the cell number change was 47.1%. Further, the AC50 under setting [2] is 14.6 µM [rising, partial curve]. For the same compound, the AC50 under setting [1] is 13 µM [rising, partial curve, poor fit].
Consider `CC(Sc1nc(NC(C)(C)C)nc(N(C)C)n1)C(=O)Nc1ccccc1` (configuration not stated), for which the cell number change is -58.1%. Also, under setting [2], the AC50 is 16.4 µM [falling, partial curve]. The AC50 under setting [1] is 9.2 µM [falling, partial curve].
In the case of `CC(NC(=O)C1CCCC1)C1CC2CCC1C2` (configuration not stated), the cell number change came out at 25.1%. Besides, the AC50 under setting [2] was 0.164 µM [rising, full curve]. For the same compound, under setting [1], the half-maximal activity concentration (AC50) is 0.146 µM [rising, full curve, poor fit].
As for `CC(=O)N1CCN(C(=O)CNC(=O)c2cccs2)CC1`, the cell number change was -1.09%. Also, the half-maximal activity concentration (AC50) under setting [2] is 0.411 µM [falling, full curve]. Also, under setting [1], the AC50 is 0.92 µM [falling, partial curve].
On to `N/C(=N\OC(=O)CCCOc1ccccc1)c1cccc([N+](=O)[O-])c1`, for which the cell number change was -13.3%. Moreover, under setting [1], the concentration at half-maximal activity (AC50) is 7.31 µM [falling, partial curve].
As for `COc1ccc(CC(=O)NNC(=O)CSc2nnc(Cc3ccc(OC)cc3)n2-c2ccccc2)cc1`, the cell number change was -15.9%. For the same compound, the AC50 under setting [2] is 2.31 µM [falling, single point]. For the same compound, the concentration at half-maximal activity (AC50) under setting [1] is 0.13 µM [falling, full curve, poor fit].
With `CCC(=O)N1CCc2cc(Br)cc(S(=O)(=O)NC3CCN(Cc4ccccc4)CC3)c21`, the cell number change is 14.8%. In addition, the AC50 under setting [1] was 6.51 µM [rising, single point].
Turning to `Cc1ccc(C(=O)NC2CCN(C(=O)NCc3ccccc3)CC2)cc1`, the cell number change was 8.75%. Moreover, under setting [1], the AC50 was 8.2 µM [rising, partial curve].
Consider `Cc1ccc(S(=O)(=O)N2CCC(C(=O)NNC(=O)C3CC3)CC2)cc1Cl`, for which the cell number change is -12.4%.
Consider `COCC(=O)N=Nc1c(O)[nH]c2ccccc12`, for which the cell number change is -2.73%. Also, the AC50 under setting [2] was 3.26 µM [rising, single point]. For the same compound, the AC50 under setting [1] was 2.59 µM [rising, partial curve, poor fit].
In the case of `O=c1c2ccccc2nc(/C=C/c2c[nH]c3ccccc23)n1-c1ccc([N+](=O)[O-])cc1`, the cell number change amounted to 19.5%. Besides, under setting [1], the concentration at half-maximal activity (AC50) is 29.1 µM [rising, single point].
With `CCOC(=O)CN/C=C(\C#N)c1ccc(F)cc1`, the cell number change was -16.2%. Also, the half-maximal activity concentration (AC50) under setting [1] was 0.184 µM [falling, full curve].
On to `O=C(OCC(=O)c1ccc[nH]1)c1ccc(Br)cc1`, for which the cell number change is 3.12%.
As to `Cc1cc(C(=O)CCC(=O)N(C)CC(=O)Nc2ccc(OC(F)(F)F)cc2)c(C)s1`, the AC50 under setting [2] was 1.46 µM [rising, partial curve].
With `CSCCC(NS(=O)(=O)c1ccc(C)cc1)C(=O)N1CCCCCCC1` (configuration not stated), the cell number change was -36.1%. In addition, the AC50 under setting [2] is 18.4 µM [falling, single point]. Further, under setting [1], the half-maximal activity concentration (AC50) was 29.1 µM [falling, single point].
Turning to `CCCCCOc1ccc(Br)cc1CSC(=N)N`, the cell number change is -28.1%. Also, under setting [1], the AC50 is 6.51 µM [falling, single point].
For `Cc1cc(C(F)(F)F)nc(NCc2ccc(F)cc2)n1`, the cell number change was -31.3%. Moreover, the half-maximal activity concentration (AC50) under setting [2] was 0.731 µM [falling, full curve].
Turning to `CCC(=O)c1ccc(OCC(=O)NC2CCCC2)cc1`, the cell number change was -5.88%. The half-maximal activity concentration (AC50) under setting [1] was 2.91 µM [rising, single point].
On to `CN(Cc1ccc(OC(F)F)cc1)C(=O)C1CCN(S(=O)(=O)c2ccc3c(c2)OCCO3)CC1`, for which the cell number change came out at 42.1%. The half-maximal activity concentration (AC50) under setting [2] was 29.1 µM [rising, single point]. Besides, the half-maximal activity concentration (AC50) under setting [1] is 29.1 µM [rising, single point].
In the case of `O=[N+]([O-])c1ccc2nc(NS(=O)(=O)c3ccc(F)cc3)sc2c1`, the cell number change is 18.5%. Under setting [2], the AC50 was 0.82 µM [rising, full curve, poor fit].
Consider `COc1cc(SC)ccc1C(=O)OC1CCOC1=O` (configuration not stated), for which the cell number change was -13.1%. The AC50 under setting [1] was 3.26 µM [falling, single point].
For `COc1ccccc1CNC(=O)CNC(=O)c1sc2ccccc2c1Cl`, the cell number change is -49.5%. For the same compound, under setting [2], the AC50 is 2.06 µM [falling, partial curve, poor fit].
`NS(=O)(=O)c1ccc(CNC(=O)c2ccc(Br)o2)cc1`: the cell number change is -18.6%. Moreover, under setting [1], the concentration at half-maximal activity (AC50) is 18.4 µM [falling, partial curve, poor fit].
For the compound `O=C(O)c1ccc(COc2ccc3ccccc3c2/C=C2/NC(=O)N(Cc3ccc(F)cc3)C2=O)cc1`, the half-maximal activity concentration (AC50) reads like this: under setting [2], 0.0058 µM [rising, full curve, poor fit]; under setting [1], 7.31 µM [rising, partial curve].
With `CCc1ccccc1NC(=O)CCS(=O)(=O)c1ccc2c(c1)CCCN2C(C)=O`, the cell number change is -36.5%. Besides, the AC50 under setting [2] is 23.1 µM [falling, single point]. Also, the AC50 under setting [1] was 23.1 µM [falling, single point].
As to `CC(C)(C)N(CC(=O)NC1CCCCC1)C(=O)CS(=O)CC(=O)Nc1ccc(F)cc1` (configuration not stated), the cell number change was found to be 4.62%. Besides, the AC50 under setting [1] is 29.1 µM [rising, single point].
Regarding `O=C(NCc1ccccc1F)C1CCCN(C(=O)Nc2ccccc2)C1` (configuration not stated), the AC50 under setting [1] was 29.1 µM [rising, partial curve, poor fit].
`Cc1cc(C)cc(NC(=O)CSc2nc3ccncc3[nH]2)c1`: the cell number change was -23.7%. Besides, the AC50 under setting [2] is 0.146 µM [falling, full curve, poor fit].
Regarding `COc1ccc(OC)c(Nc2nc(-c3ccc(O)c(O)c3)cs2)c1`, the concentration at half-maximal activity (AC50) under setting [1] was 0.92 µM [rising, partial curve].
Consider `CC(C)C[C@H](NC(=O)c1nc[nH]c1C(=O)NC1CCN(C(=O)OC(C)(C)C)CC1)C(=O)OCc1ccccc1`, for which the cell number change is -51.3%. In addition, the half-maximal activity concentration (AC50) under setting [2] is 32.6 µM [falling, single point]. Besides, under setting [1], the concentration at half-maximal activity (AC50) was 29.1 µM [falling, single point].
In the case of `O=C(N/N=C/c1ccc(Cl)c(Cl)c1)c1ccc2nc[nH]c2c1`, the half-maximal activity concentration (AC50) under setting [1] was 0.58 µM [rising, single point].
Consider `COc1ccc(-c2nc(NC(=O)Cn3ccc(C(F)(F)F)n3)sc2C)cc1`, for which the AC50 by setting is: under setting [2], 0.651 µM [rising, single point]; under setting [1], 8.2 µM [rising, partial curve].
Consider `CC(C)C[C@H](NC(=O)c1nc[nH]c1C(=O)NCc1ccc(CNC(=O)OC(C)(C)C)cc1)C(=O)OCc1ccccc1`, for which the cell number change came to 73.1%. Moreover, the AC50 under setting [2] is 29.1 µM [rising, single point]. In addition, the AC50 under setting [1] was 2.06 µM [falling, full curve].
For `C=CCSc1nsc(NC(=O)Nc2ccc(F)cc2)n1`, the AC50 under setting [1] was 6.51 µM [falling, partial curve].
In the case of `CC(C)(C)C(=O)NC(=S)Nc1ccc(Cc2ccncc2)cc1`, the cell number change was -22.5%.
Still for that read-out and setting: the value for `CCOC(=O)C(C)Sc1nc(-c2ccco2)cc(C(F)(F)F)c1C#N` (configuration not stated) was -17.5%.
With `CCN(C(=O)CSc1n[nH]c(-c2cc(Cl)ccc2OC)n1)C1CCS(=O)(=O)C1` (configuration not stated), the cell number change was 18.8%. Moreover, the AC50 under setting [1] was 0.58 µM [rising, partial curve, poor fit].
Turning to `C#CCOC(=O)C(NC(=O)c1ccccc1)=C(C)C`, the cell number change is 58.9%. For the same compound, under setting [2], the AC50 is 5.8 µM [rising, partial curve, poor fit]. Further, the concentration at half-maximal activity (AC50) under setting [1] is 3.26 µM [rising, partial curve].
As to `CC(C)OCCCNc1ccc(N2C(=O)CCCC2=O)cc1[N+](=O)[O-]`, the cell number change is 12.2%. Further, the AC50 under setting [1] is 0.00517 µM [falling, full curve, poor fit].
`COc1ccccc1OCCCC(=O)Nc1nccs1`: the cell number change was -7.98%. For the same compound, the AC50 under setting [1] is 0.731 µM [falling, single point].
In the case of `O=C1COc2ccc(C(=O)COC(=O)Cc3c(F)cccc3Cl)cc2N1`, the cell number change was 13.7%.
Regarding `COc1ccc(NC(=O)NCc2ccc(Cl)cc2)cc1`, the cell number change was 29.8%. Further, the AC50 under setting [2] is 0.231 µM [rising, full curve, poor fit]. The AC50 under setting [1] is 0.58 µM [rising, single point].
Take `CCCN(CC(=O)Nc1ccccc1C)C(=O)c1cc(=O)[nH]c2ccccc12`: the cell number change turned out to be 22.8%. For the same compound, the AC50 under setting [1] was 14.6 µM [rising, partial curve, poor fit].
Take `Cn1cc(CCCC(=O)NCc2ccc(F)cc2)c2ccccc21`: the cell number change is -18.3%. For the same compound, the AC50 under setting [1] is 29.1 µM [falling, single point].
Consider `O=C1c2ccccc2C(=O)N1CC(=O)N1c2ccccc2Sc2ccccc21`, for which the cell number change was -4.9%. Also, the half-maximal activity concentration (AC50) under setting [2] is 0.0058 µM [falling, full curve, poor fit]. In addition, the concentration at half-maximal activity (AC50) under setting [1] is 0.116 µM [falling, full curve, poor fit].
On to `COc1ccc(C(=O)N2CCN(S(=O)(=O)c3ccc(Cl)cc3)CC2)cc1OC`, for which the cell number change was found to be 19.8%.
Regarding `COc1cc(N)c(Cl)cc1C(=O)OCC(=O)c1ccc2c(c1)NC(=O)CO2`, the cell number change was 19.8%. For the same compound, the half-maximal activity concentration (AC50) under setting [2] was 0.461 µM [rising, full curve, poor fit].
In the case of `CC(NCCC(c1ccccc1)c1ccccc1)c1ccccc1` (configuration not stated), the cell number change was -73.9%. Moreover, the AC50 under setting [2] is 20.6 µM [falling, partial curve]. In addition, under setting [1], the half-maximal activity concentration (AC50) was 18.4 µM [falling, single point].
